Some of these results come from one statement about several compounds together. Some compounds share one range, which may span the group rather than tell each member.
Experiment: 31P-NMR phase preference of equimolar DOPE:cholesterol mixtures with bilayer stabilizing component (BSC)
Assay type: physicochemical
Conditions: BSC 9 mol % (1:1:0.1), spectra 0-60° C.
Experimental: Lipid components were mixed in 1-2 ml of benzene:methanol (95:5, v/v) and then lyophilized for a minimum of 5 hours at a pressure of <60 millitorr using a Virtis lyophilizer equipped with a liquid N2 trap. Multilamellar vesicles (MLVs) were prepared by hydrating the dry lipid mixtures in 150 mM NaCl, buffered with 10 mM Hepes-NaOH, pH 7.4 (Hepes-buffered saline, HBS). Mixtures were vortexed to assist hydration. To produce large unilamellar vesicles (LUVs), MLVs were first frozen in liquid nitrogen and then thawed at 30° C. five times. LUVs were produced by extrusion of the frozen and thawed MLVs ten times through 2 stacked polycarbonate filters of 100 nm pore size at 30° C. and pressures of 200-500 psi (Hope, et al., Biochim. Biophys. Acta, 812:55-65 (1985)).
^31P-NMR spectra were obtained using a temperature controlled Bruker MSL200 spectrometer operating at 81 MHz. Free induction decays were accumulated for 2000 transients using a 4 μs, 90° pulse, 1 sec. interpulse delay, 20 KHz sweep width and Waltz decoupling. A 50 Hz line broadening was applied to the data prior to Fourier transformation. Samples were allowed to equilibrate at the indicated temperature for 30 minutes prior to data accumulation. Lipid concentrations of 30-70 mM were used.

Substance	bilayer to hexagonal (HII) phase transition
PEG2000 conjugated to distearoylphosphatidylethanolamine [DSPE-PEG2000]	40-50 °C
PEG2000 conjugated to dipalmitoylphosphatidylethanolamine [DPPE-PEG2000]	40-50 °C
PEG2000 conjugated to dimyristoylphosphatidylethanolamine [DMPE-PEG2000]	40-50 °C
